Results are given in words; binding and its absence hold for the method and conditions named. In cells and extracts the contact can be indirect. A result given as binding can be weak or reduced; the word gives no strength.
Biological target: woodchuck metastatic tumor antigen 1 (wk-MTA1), flag-tagged (woodchuck (Marmota monax)) (UniProt M9R048)
Assay: co-IP; 293T cells transfected with WHx-EGFP and flag-wk-MTA1; whole-cell lysates (RIPA: 120 mM NaCl, 50 mM Tris pH 7.5, 5 mM EDTA, 0.5% NP-40) immunoprecipitated with monoclonal anti-GFP or anti-FLAG antibody overnight at 4°C, protein-G sepharose, immunoblot

Amino acid sequences for entries named in this document (tags omitted).
UniProt Q04206: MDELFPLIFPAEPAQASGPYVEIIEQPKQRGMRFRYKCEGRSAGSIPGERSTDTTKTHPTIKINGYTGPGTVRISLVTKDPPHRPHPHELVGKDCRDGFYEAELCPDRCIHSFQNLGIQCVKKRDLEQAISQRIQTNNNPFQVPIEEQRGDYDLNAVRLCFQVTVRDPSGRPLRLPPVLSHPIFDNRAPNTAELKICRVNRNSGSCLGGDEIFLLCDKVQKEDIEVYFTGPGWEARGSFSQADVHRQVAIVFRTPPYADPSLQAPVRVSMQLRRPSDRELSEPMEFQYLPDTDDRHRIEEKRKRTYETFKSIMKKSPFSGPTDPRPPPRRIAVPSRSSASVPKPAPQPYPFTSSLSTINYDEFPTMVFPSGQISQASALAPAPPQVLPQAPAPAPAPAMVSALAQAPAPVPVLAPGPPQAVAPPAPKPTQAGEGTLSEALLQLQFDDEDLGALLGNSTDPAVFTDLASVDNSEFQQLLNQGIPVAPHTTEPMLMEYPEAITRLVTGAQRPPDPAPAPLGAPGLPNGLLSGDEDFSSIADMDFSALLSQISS

## p65 of NF-κB (from UniProt Q04206 1-551)
  binding: binds
